Reference: publication PMC6191541, “Small-Molecule Acetylation Controls the Degradation of Benzoate and Photosynthesis in Rhodopseudomonas palustris” (mBio, 2018)
Construct, isoform or probe ends are uncertain for at least one entry. A weaker result is weaker than the reference pair of the same experiment. Where a protein sequence is shown, tags need not be part of it.

Target: T1, BadM (Rhodopseudomonas palustris) (UniProt O07465)
T1 sequence (looked up, limits assumed): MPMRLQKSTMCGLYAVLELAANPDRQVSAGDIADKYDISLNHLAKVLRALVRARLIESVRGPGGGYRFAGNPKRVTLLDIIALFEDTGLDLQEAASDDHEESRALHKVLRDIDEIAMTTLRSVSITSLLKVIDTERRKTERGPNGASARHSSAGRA
Test: EMSA
Settings: lesser effect than 2-acetamidobenzoate, poor solubility, 25 µL, Tris 20 mM pH 7.5 (at 25°C), KCl 50 mM, DTT 1 mM, probe 12 nM (0.303 pmol), BadM 72 nM (1.8 pmol), recombinant protein, label: 6-FAM (text and Methods: 3' end, legends: 5'), probe letters rebuilt from the primers and the genome

GTGATGCGGCCTGTCGAGCATGCCGGTCGTCCTCCCTGCCCGGCGGCTCTGCCGGGTCGCGCTGCCGGCCATTTTCCGGCCCAGCGATTTAAATGTAATCTAGTATCGGAATGCGATAATTAATTTGATGCGGATCAAATTTGGCAAAGGCACAGCCGACACGGGCCGACGCCGGCTCGTAGTCGGGAGGCTCAGATATCGATCGCGATCTT (double strand) [badDEFGAB promoter / badCD intergenic probe]
binding result (3-acetamidobenzoate): binds more weakly | binding result (4-acetamidobenzoate): binds more weakly
